# Reference: patent US20120134991A1
# Protein sequences, listed by entry. Tags and fused reporters are not part of them.
# UniProt P18901: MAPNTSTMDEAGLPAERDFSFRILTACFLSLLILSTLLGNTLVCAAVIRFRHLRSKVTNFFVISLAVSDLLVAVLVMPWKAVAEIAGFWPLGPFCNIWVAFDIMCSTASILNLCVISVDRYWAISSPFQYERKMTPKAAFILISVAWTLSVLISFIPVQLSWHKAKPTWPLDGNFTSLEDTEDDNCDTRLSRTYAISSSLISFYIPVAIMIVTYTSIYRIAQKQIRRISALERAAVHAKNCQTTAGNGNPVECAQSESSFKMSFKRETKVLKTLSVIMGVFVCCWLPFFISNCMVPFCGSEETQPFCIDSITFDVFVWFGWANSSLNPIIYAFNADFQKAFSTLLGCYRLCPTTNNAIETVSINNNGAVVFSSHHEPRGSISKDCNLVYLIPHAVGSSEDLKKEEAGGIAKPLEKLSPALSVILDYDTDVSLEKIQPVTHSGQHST
# These are yes or no findings as the source states them, for the method shown. For part of these data: Binding seen in cells or lysates may run through a third protein. Some binding calls cover weakened binding; strength is not graded here. Sequences can lack the tags named with a protein.
# Columns and labels:
# [1] = molecular target: D1 receptor from solubilized rat striatum / prefrontal cortex (rat) (UniProt P18901); test: GST pull-down from rat striatal extract, Western blot (FIG. 1D)
# [2] = molecular target: D1 receptor from solubilized rat striatum / prefrontal cortex (rat) (UniProt P18901); test: GST pull-down, Western blot (FIG. 1E)
# [3] = molecular target: D1 receptor from solubilized rat striatum / prefrontal cortex (rat) (UniProt P18901); test: GST pull-down from rat striatal extract, Western blot (FIG. 1E)
Binder,binding [1],binding [2],binding [3]
"GNCTHPEDMKLCTVIMKSNGSFPVNRRRV (peptide, not shown: a dimerising Fc or GST) [GST-D2IL3-29 (G242-V270)]",binds,–,–
"IMKSNGSFPVNRRRV (peptide, not shown: a dimerising Fc or GST) [GST-D2LIL3-29-2 (I256-V270)]",–,binds,binds
